Article PMC9473612

Tests used:
[1] = target: mNeongreen RhoGEF2 (1–619) 7A (Drosophila); assay: co-IP; S2 cells coexpressing mNeongreen RhoGEF2 (1-619) constructs and EB1-mScarlet; 1 mg lysate in 50 mM tris-HCl pH 7.5, 250 mM NaCl, 1 mM EDTA, 1 mM MgCl2, 0.2% NP-40, 10% glycerol; precipitated with mNeongreen-trap magnetic agarose, 1 h, 4°C; immunoblot
[2] = target: mNeongreen RhoGEF2 (1–619), wild type (Drosophila); assay: as above

- binding [1]: binds
- binding [2]: binds
B1: EB1-mScarlet (protein, UniProt Q9XZ57 1-290)
chain: MAVNVYSTNVTSENLSRHDMLAWVNDCLQSQFSKIEELCTGAAYCQFMDMLFPNSVPVKRVKFRTNLEHEYIQNFKILQAGFKKMSVDKIIPIDKLVKGRFQDNFEFLQWFKKFFDANYDGRDYDASAVREGAPMGFGSGAVKSLPGTAASGVSSSYRRGPSATTRPAMTSAVKPISKVLPRTNNAAPASRINACANSTGTVKKNDVSNSVNNQQIEEMSNQVMDMRINLEGLEKERDFYFSKLRDIEILCQEADDAEAHPIIQKILDILYATEDGFAPPDDAPPEDEEY

No constants are given. Whether binding was seen depends on the method and setting. In cells and extracts the contact can be indirect. Binding calls can cover weak binding; strength is not graded here.
